# The other results are listed elsewhere or left out.
# Protein sequences, listed by entry. Tags and fused reporters are not part of them. Lines headed by an entry give the natural chain unless they say otherwise; changes in a name come on top.
# UniProt Q6WKZ4: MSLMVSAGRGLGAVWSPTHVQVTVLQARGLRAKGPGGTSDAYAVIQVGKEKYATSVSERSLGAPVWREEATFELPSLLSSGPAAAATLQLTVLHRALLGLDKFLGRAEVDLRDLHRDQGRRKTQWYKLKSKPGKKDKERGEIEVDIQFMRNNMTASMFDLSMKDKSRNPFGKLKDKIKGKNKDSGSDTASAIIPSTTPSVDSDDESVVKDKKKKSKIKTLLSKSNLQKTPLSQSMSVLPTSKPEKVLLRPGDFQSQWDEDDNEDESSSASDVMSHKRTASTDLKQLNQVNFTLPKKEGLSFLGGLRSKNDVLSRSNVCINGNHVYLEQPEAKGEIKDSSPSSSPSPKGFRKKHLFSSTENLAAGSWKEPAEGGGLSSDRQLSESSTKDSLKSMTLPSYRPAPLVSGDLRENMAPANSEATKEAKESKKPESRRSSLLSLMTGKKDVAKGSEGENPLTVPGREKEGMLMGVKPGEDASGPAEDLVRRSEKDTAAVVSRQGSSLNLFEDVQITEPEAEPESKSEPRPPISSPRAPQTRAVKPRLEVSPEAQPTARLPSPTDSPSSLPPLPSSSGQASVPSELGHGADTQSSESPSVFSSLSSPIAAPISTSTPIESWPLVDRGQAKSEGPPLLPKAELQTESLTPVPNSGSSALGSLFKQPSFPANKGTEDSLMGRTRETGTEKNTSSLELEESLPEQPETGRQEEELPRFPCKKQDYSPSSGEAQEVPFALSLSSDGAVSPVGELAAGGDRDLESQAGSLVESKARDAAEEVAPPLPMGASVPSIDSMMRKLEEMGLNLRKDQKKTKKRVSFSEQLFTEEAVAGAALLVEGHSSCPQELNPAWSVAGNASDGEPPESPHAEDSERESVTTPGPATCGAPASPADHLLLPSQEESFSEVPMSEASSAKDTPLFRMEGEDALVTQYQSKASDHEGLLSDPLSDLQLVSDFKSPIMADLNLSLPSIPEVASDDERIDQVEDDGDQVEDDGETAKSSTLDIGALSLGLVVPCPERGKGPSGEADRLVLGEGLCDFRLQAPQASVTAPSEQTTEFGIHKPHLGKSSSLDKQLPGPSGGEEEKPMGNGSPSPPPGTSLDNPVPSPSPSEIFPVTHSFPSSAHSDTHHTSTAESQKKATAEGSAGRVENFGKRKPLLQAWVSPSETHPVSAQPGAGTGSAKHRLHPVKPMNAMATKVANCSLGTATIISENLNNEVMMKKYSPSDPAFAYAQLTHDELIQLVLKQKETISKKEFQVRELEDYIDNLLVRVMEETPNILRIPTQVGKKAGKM
# UniProt Q92930: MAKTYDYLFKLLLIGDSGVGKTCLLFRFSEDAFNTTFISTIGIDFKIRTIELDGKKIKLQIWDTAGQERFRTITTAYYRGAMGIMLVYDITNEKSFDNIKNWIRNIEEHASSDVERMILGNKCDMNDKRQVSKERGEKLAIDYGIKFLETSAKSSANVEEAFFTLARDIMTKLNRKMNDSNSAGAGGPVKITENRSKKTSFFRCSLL
# UniProt Q9NW64: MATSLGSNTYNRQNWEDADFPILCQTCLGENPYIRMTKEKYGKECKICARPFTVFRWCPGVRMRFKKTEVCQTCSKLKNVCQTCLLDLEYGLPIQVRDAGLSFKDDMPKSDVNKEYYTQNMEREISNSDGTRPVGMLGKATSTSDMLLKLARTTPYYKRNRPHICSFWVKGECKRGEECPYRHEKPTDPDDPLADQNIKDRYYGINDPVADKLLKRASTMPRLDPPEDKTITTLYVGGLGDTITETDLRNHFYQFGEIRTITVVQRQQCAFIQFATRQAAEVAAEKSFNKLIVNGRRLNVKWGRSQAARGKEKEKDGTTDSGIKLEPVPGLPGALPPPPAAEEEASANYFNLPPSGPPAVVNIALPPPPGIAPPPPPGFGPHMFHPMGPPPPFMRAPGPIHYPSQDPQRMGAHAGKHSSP
# UniProt Q9UKM9: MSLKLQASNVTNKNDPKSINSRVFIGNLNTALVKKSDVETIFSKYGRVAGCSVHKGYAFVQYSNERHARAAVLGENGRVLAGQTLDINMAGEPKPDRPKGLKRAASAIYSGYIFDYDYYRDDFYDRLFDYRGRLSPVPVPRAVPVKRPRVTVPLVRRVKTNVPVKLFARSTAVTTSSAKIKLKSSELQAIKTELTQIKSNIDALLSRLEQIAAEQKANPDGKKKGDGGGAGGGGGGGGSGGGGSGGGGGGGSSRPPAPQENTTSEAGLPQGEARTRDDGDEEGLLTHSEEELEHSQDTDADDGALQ
# UniProt Q6GYQ0: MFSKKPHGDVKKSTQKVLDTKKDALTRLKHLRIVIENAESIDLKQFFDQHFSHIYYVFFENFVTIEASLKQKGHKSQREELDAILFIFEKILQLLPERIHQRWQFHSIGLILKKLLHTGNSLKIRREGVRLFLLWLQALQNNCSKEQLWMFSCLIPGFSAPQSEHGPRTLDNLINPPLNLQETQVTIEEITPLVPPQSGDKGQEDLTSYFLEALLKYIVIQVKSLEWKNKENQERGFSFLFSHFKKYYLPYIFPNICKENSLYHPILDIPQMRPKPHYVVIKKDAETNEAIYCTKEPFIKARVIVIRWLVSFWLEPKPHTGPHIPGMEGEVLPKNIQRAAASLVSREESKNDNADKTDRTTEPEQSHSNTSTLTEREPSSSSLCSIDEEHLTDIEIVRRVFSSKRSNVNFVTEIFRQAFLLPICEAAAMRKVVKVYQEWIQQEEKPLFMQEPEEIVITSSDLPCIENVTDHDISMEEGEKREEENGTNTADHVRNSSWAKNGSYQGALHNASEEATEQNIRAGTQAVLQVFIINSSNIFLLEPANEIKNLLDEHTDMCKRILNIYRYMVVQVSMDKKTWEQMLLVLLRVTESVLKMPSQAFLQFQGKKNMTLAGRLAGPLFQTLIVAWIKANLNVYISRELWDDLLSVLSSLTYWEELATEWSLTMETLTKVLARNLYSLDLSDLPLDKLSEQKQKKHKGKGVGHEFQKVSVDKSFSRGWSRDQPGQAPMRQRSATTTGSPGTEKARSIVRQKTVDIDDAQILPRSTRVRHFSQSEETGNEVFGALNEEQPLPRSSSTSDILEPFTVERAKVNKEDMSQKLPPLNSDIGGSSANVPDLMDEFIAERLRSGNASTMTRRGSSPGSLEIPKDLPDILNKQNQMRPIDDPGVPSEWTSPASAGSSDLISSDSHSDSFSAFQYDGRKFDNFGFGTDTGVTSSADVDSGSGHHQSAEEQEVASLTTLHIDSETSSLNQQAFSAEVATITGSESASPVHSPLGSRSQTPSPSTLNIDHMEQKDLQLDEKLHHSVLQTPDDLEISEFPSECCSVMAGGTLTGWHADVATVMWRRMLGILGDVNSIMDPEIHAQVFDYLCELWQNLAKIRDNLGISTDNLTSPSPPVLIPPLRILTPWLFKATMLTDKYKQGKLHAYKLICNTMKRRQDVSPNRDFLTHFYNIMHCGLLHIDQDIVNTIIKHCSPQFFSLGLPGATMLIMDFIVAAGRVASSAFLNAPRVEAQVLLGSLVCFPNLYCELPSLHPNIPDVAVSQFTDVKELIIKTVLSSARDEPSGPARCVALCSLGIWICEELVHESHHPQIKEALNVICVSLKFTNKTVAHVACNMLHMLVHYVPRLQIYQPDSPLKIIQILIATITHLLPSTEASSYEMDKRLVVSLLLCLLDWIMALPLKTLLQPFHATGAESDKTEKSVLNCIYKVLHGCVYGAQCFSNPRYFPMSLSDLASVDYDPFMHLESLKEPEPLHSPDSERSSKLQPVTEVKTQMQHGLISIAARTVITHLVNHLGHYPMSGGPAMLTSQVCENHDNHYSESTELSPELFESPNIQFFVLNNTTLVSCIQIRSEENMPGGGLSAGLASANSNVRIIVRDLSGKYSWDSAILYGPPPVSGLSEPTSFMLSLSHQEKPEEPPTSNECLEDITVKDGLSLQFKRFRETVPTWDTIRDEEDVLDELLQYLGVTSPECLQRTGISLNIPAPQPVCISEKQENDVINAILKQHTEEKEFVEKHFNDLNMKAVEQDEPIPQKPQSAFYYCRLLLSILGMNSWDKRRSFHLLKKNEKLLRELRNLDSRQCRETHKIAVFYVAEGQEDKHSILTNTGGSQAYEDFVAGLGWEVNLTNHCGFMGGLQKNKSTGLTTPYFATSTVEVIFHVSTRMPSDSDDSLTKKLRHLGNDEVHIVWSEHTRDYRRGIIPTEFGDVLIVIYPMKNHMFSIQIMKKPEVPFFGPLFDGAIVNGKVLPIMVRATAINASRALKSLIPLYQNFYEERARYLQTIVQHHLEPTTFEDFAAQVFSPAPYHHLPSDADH
# UniProt Q06609, whole entry, looked up: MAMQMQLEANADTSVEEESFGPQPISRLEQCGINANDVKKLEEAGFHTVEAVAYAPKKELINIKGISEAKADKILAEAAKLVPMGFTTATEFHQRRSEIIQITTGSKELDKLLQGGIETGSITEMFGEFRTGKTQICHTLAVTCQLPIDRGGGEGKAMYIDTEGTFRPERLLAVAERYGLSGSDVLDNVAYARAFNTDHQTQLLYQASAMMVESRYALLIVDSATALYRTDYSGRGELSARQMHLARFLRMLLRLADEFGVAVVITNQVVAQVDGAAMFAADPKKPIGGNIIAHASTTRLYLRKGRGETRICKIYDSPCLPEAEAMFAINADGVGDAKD
# UniProt P62834: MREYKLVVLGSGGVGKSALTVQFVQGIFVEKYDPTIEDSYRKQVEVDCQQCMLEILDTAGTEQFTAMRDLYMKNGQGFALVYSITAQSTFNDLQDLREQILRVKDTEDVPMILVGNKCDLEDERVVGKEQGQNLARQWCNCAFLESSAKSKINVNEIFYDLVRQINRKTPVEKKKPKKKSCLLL
# UniProt Q8WWW0: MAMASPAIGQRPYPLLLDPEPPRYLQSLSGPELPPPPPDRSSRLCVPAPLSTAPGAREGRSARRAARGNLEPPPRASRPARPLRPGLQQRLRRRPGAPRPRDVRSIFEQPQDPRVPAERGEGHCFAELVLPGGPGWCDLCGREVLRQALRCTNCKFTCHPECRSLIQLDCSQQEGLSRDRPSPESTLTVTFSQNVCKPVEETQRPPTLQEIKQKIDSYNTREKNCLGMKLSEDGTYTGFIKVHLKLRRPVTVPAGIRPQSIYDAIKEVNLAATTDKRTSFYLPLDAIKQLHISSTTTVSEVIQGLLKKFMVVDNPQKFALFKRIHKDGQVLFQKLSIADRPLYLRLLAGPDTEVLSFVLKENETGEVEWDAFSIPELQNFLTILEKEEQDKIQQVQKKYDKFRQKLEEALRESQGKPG
# UniProt Q13636: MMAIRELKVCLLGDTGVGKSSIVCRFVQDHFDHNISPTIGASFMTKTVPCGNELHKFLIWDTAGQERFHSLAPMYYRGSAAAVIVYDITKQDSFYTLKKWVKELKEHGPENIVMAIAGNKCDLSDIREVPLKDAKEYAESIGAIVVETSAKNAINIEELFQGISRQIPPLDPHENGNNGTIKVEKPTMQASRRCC
# UniProt Q96B01: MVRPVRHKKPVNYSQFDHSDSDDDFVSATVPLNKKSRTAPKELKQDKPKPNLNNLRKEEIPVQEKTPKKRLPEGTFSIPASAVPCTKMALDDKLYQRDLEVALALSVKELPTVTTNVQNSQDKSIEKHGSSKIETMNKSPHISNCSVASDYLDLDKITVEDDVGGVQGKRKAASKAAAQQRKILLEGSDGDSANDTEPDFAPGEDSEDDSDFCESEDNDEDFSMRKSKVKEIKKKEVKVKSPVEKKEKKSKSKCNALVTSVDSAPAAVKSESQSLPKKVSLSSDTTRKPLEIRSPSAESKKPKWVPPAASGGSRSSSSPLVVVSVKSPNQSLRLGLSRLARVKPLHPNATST
# UniProt Q9H0H5: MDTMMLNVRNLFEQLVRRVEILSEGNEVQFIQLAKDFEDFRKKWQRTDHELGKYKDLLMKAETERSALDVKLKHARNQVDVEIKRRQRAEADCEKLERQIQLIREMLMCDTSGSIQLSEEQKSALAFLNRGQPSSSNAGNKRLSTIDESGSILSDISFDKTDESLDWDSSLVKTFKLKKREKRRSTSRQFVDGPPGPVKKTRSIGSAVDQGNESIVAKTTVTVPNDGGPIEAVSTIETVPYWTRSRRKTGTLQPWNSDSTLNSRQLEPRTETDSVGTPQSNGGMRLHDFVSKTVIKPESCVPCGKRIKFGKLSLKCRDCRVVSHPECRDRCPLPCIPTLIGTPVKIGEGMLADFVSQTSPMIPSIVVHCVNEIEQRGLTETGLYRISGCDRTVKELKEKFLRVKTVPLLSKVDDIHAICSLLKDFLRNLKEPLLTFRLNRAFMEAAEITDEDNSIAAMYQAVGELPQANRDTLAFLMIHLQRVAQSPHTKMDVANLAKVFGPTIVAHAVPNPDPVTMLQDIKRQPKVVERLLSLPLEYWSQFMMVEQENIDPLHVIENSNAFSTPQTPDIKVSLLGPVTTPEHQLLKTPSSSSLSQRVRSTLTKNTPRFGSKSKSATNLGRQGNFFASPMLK
# UniProt P61006: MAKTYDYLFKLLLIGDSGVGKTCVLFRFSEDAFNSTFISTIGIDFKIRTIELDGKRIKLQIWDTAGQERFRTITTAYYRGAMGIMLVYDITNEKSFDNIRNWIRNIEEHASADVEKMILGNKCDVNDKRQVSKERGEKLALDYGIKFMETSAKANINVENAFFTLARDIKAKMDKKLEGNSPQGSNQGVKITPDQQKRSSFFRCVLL
# Compound: Cc1cc(SCc2sc(-c3ccc(C(F)(F)F)cc3)nc2C)ccc1OCC(=O)O
# Assay: log2 fold change, soluble protein after heating vs DMSO (PISA); higher = thermal stabilisation; K562 cells, 10 uM, 30 min; active = over 0.2 and 3.5 SD of the protein, either way, in both replicates (recomputed)
# Summary of the method: (§1)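 K562 cells at 2×10^6 cells/mL were given 10 μM compound for 30 min. Aliquots then went through 3 min of heating across 48°C-58°C, were pooled, and were extracted in PBS with 0.5% NP-40 at 4°C, and the supernatant after 21,000xg for 90 min was quantified by TMTpro 16plex LC-MS/MS with channel sums equalised. Thermal stability relative to control samples, from duplicates, is given as log2 fold change.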
row,Target,log2 fold change
1,RASA1 (UniProt P20936),inactive: 0.203
2,RAB11FIP1 (UniProt Q6WKZ4),inactive: -0.003
3,RAB8B (UniProt Q92930),inactive: 0.005
4,RAP1B (UniProt F5GZG1),inactive: -0.136
5,RBM22 (UniProt Q9NW64),inactive: 0
6,RALY (UniProt Q9UKM9),inactive: 0.043
7,RASA2 (UniProt Q15283),inactive: 0.066
8,RAB11A (UniProt P62491),inactive: -0.094
9,RALGAPB (UniProt Q86X10),inactive: 0.014
10,RALGAPA1 isoform 6 (UniProt Q6GYQ0),inactive: -0.002
11,RANBP2 (UniProt P49792),inactive: -0.003
12,RBM27 (UniProt Q9P2N5),inactive: 0.09
13,RB1CC1 (UniProt Q8TDY2),inactive: 0.011
14,RACK1 (UniProt D6RF23),inactive: -0.125
15,RAD51 (UniProt Q06609),inactive: -0.005
16,RAP1A (UniProt P62834),inactive: -0.011
17,RASSF5 (UniProt Q8WWW0),inactive: -0.148
18,RAB31 (UniProt Q13636),inactive: -0.018
19,RAD9A (UniProt Q99638),inactive: 0.012
20,RAD51AP1 (UniProt Q96B01),inactive: -0.045
21,RB1 (UniProt P06400),inactive: -0.024
22,RACGAP1 (UniProt Q9H0H5),inactive: 0.056
23,RAB6D (UniProt Q53S08),inactive: -0.079
24,RAN (UniProt P62826),inactive: -0.06
25,RAB3GAP1 (UniProt Q15042),inactive: 0.084
26,"RAPGEF2, A0A2R8YGD3",inactive: -0.231
27,RALA (UniProt P11233),inactive: -0.009
28,RANGAP1 (UniProt P46060),inactive: 0.047
29,RAB8A isoform 2 (UniProt P61006),inactive: -0.011
30,RAC1 (UniProt P63000),inactive: -0.044

# Compound: Cc1ccc(-n2nc(C(C)(C)C)cc2NC(=O)Nc2ccc(OCCN3CCOCC3)c3ccccc23)cc1 [doramapimod]
# Assay: as above
# Summary of the method: as §1
row,Target,log2 fold change
1,RASA1 (UniProt P20936),inactive: -0.257
2,RAB11FIP1 (UniProt Q6WKZ4),inactive: 0.047
3,RAB8B (UniProt Q92930),inactive: 0.034
4,RAP1B (UniProt F5GZG1),inactive: 0.044
5,RBM22 (UniProt Q9NW64),inactive: -0.025
6,RALY (UniProt Q9UKM9),inactive: 0.01
7,RASA2 (UniProt Q15283),inactive: -0.012
8,RAB11A (UniProt P62491),inactive: 0.021
9,RALGAPB (UniProt Q86X10),inactive: 0.122
10,RALGAPA1 isoform 6 (UniProt Q6GYQ0),inactive: 0.091
11,RALBP1 (UniProt Q15311),inactive: 0.151
12,RANBP2 (UniProt P49792),inactive: 0.043
13,RBM27 (UniProt Q9P2N5),inactive: -0.035
14,RB1CC1 (UniProt Q8TDY2),inactive: 0.037
15,RACK1 (UniProt D6RF23),inactive: 0.024
16,RAD51 (UniProt Q06609),inactive: -0.025
17,RAP1A (UniProt P62834),inactive: 0.009

row,Target,log2 fold change
1,RASSF5 (UniProt Q8WWW0),inactive: 0.004
2,RAPGEF6 isoform 4 (UniProt Q8TEU7),inactive: 0.008
3,RAB31 (UniProt Q13636),inactive: -0.025
4,RAD9A (UniProt Q99638),inactive: -0.025
5,RAD51AP1 (UniProt Q96B01),inactive: -0.024
6,RB1 (UniProt P06400),inactive: 0.022
7,RANBP10 (UniProt Q6VN20),inactive: -0.025
8,RACGAP1 (UniProt Q9H0H5),inactive: 0.03
9,RAB6D (UniProt Q53S08),inactive: 0.054
10,RAN (UniProt P62826),inactive: -0.025
11,RAB3GAP1 (UniProt Q15042),inactive: 0.105
12,"RAPGEF2, A0A2R8YGD3",inactive: 0.114
13,RALA (UniProt P11233),inactive: -0.009
14,RANGAP1 (UniProt P46060),inactive: -0.025
15,RAB8A isoform 2 (UniProt P61006),inactive: -0.021
16,RAC1 (UniProt P63000),inactive: 0.112

# Compound: Cc1ccc(C(=O)N(CCCN)[C@@H](c2nc3cc(Cl)ccc3c(=O)n2Cc2ccccc2)C(C)C)cc1 [ispinesib]
# Assay: as above
# Summary of the method: as §1
row,Target,log2 fold change
1,RASA1 (UniProt P20936),inactive: -0.181
2,RAB11FIP1 (UniProt Q6WKZ4),active: -0.251
3,RAB8B (UniProt Q92930),inactive: 0.01
4,RBM22 (UniProt Q9NW64),inactive: -0.053
5,RALY (UniProt Q9UKM9),inactive: -0.082
6,RASA2 (UniProt Q15283),inactive: -0.632
7,RAB11A (UniProt P62491),inactive: 0.019
8,RALGAPB (UniProt Q86X10),inactive: 0.073
9,RALGAPA1 isoform 6 (UniProt Q6GYQ0),inactive: -0.037
10,RANBP2 (UniProt P49792),inactive: -0.031
11,RBM27 (UniProt Q9P2N5),inactive: -0.122
12,RB1CC1 (UniProt Q8TDY2),inactive: -0.02
13,RACK1 (UniProt D6RF23),inactive: -0.185
14,RAD51 (UniProt Q06609),inactive: -0.009
15,RAP1A (UniProt P62834),inactive: 0.185
16,RASSF5 (UniProt Q8WWW0),inactive: 0.089

row,Target,log2 fold change
1,RAPGEF6 isoform 4 (UniProt Q8TEU7),inactive: -0.074
2,RAB31 (UniProt Q13636),inactive: 0.06
3,RAD9A (UniProt Q99638),inactive: 0.025
4,RAD51AP1 (UniProt Q96B01),inactive: -0.037
5,RB1 (UniProt P06400),inactive: -0.002
6,RANBP10 (UniProt Q6VN20),inactive: -0.067
7,RACGAP1 (UniProt Q9H0H5),inactive: 0.052
8,RAB6D (UniProt Q53S08),inactive: -0.07
9,RAN (UniProt P62826),inactive: -0.01
10,RAB3GAP1 (UniProt Q15042),inactive: -0.206
11,"RAPGEF2, A0A2R8YGD3",inactive: 0.011
12,RALA (UniProt P11233),inactive: 0.03
13,RANGAP1 (UniProt P46060),inactive: -0.014
14,RAB8A isoform 2 (UniProt P61006),inactive: 0.028
15,RAC1 (UniProt P63000),inactive: 0.024

# — the supplement of paper PMC10849652
